Measurements from patent US5958875A, “Synthetic peptides derivatives with nerve growth factor-like neurotrophic activity” (The Regents of the University of California, priority 1996, dated 1999).
Not every detail of the peptide structures is certain; ends, links or a residue may be inferred. Bridge positions count the residues as written; N and C are the ends. Square brackets hold non-standard residues; d marks the D form. Peptide text beside a SMILES is read from it. Pen = CC(C)(S)[C@H](N)C(=O)O

What was measured:
[1] = system: Chick embryo DRG neurons; experiment: morphological/MTT assay of neuronal survival; format: cell-based; details: for survival-promoting activity (in words): NGF loop peptides, main HPLC peak, up to 500 μM; for concentration range with activity significantly above background: main (largest) HPLC peak, neuronal survival
Method: Bioassays were performed as previously described (Manthorpe et al, "An automated colorimetric microassay for neuronotrophic factors", Dev. Brain Res. 25:191-198 (1986)). Dorsal root ganglia were dissected from embryonic day 8 chick embryos and placed in calcium and magnesium-free Dulbecco's balanced salt solution on ice. Ganglia were pelleted and then resuspended and incubated for 10 min in 2.5 ml 0.01% trypsin at 37° C., washed once with 4 ml of culture medium (Dulbecco's Modified Eagle's Medium H-21 with glutamine, 1 mm pyruvate, 3.0 g/L glucose, 3.7 g/L HCO3 and 10% fetal calf serum) and dissociated in 1.5 ml culture medium by gentle trituration (10-15 times) through a 1 mm diameter flamed glass pipette. The resulting cell suspension was diluted to 7 ml in culture medium, added to a 100 mm diameter plastic tissue culture dish (Falcon) and incubated for 2.5 hrs at 37° C. in 5% C02 -95% air. During this incubation non-neuronal cells (Schwann cells, fibroblasts) more readily attached to the substratum leaving a supernatant containing an enriched neuronal population (80-85% neurons). Tissue culture wells (Costar A/2, 0.16 cm^2 /well) were precoated with […]/well of polyornithine (Sigma; 0.1 mg/ml in phosphate buffered saline, PBS) for 1 hr followed by […]/well laminin (Gibco, 10 mg/ml in PBS) for 3 hrs. Laminin provided a substrate permissive for neurite outgrowth. Laminin-PBS was aspirated and each well received 25 ml of peptide serially diluted in culture medium and 25 ml of cell suspension (60,000 cells/ml, ^~ 1500 neurons/well). Control cultures performed with each assay included serial dilutions of NGF to generate NGF dose-response curves and cultures without NGF or peptides to determine background survival. Background survival was typically 10-15% of that seen with optimal concentrations of NGF. Mouse submaxillary β-NGF was purified via 7S NGF as previously described (Longo et al., "The in vitro biological effect of nerve growth factor is inhibited by synthetic peptides", Cell Regulation 1:189-195 (1990)).
(§1) The bioassays used for measuring the NGF agonist activity of the compounds of this invention were initially characterized using NGF as a control. […] The neurotrophic activity of NGF is most easily assessed by measuring the number of cells surviving and bearing neurites; however, the lack of neurites in peptide-supported cultures required the use of additional criteria to assess peptide effect. In order to more accurately determine neuronal survival, MTT was added to cultures at 16 hours and cultures assessed under phase contrast microscopy at 24 hours. Intact cells characteristic of surviving neurons which also contained blue MTT product were counted. […] In subsequent studies, activity of both peptides and NGF was assessed by counting the number of intact cells with blue MTT product (morphological/MTT assay) and by the automated MTT assay.
Neuronal survival and neurite outgrowth were assessed by a combination of morphological criteria described previously (Longo et al, "The in vitro biological effect of nerve growth factor is inhibited by synthetic peptides" Cell Regulation 1:189-195 (1990)) and an MTT calorimetric assay (Manthorpe et al., "An automated colorimetric microassay for neuronotrophic factors", Dev. Brain Res. 25:191-198 (1986)). […]

[2] = system: Chick embryo DRG neurons; experiment: automated MTT neurotrophic assay; format: cell-based; details: HPLC fractions of ten cyclized/oxidized NGF 29-36 region peptides
Method: Bioassays were performed as previously described (Manthorpe et al, "An automated colorimetric microassay for neuronotrophic factors", Dev. Brain Res. 25:191-198 (1986)). Dorsal root ganglia were dissected from embryonic day 8 chick embryos and placed in calcium and magnesium-free Dulbecco's balanced salt solution on ice. […] During this incubation non-neuronal cells (Schwann cells, fibroblasts) more readily attached to the substratum leaving a supernatant containing an enriched neuronal population (80-85% neurons). […]
as §1, with “assay. […]” for “assay.”

## CC[C@H](C)[C@H](N)C(=O)N[C@@H]1C(=O)N[C@@H](CCCCN)C(=O)N[C@@H](CCC(=O)O)C(=O)NCC(=O)N[C@@H](CCCCN)C(=O)N[C@@H](C(C)C)C(=O)N[C@H](C(=O)N[C@H](C(N)=O)[C@@H](C)O)CSSC1(C)C [P7 scrambled] (H-I[Pen]KEGKVCT-NH2; disulfide 2-8)
[1]; HPLC fractions of cyclized/oxidized, scrambled and linear P7
  survival-promoting activity of P7 forms (in words): showed activity

## CC[C@H](C)[C@H](N)C(=O)N[C@H]1CSSC(C)(C)[C@@H](C(=O)N[C@H](C(N)=O)[C@@H](C)O)NC(=O)[C@H](C(C)C)NC(=O)[C@H](CCC(=O)O)NC(=O)[C@H](CCCCN)NC(=O)CNC(=O)[C@H](CCCCN)NC1=O [Peptide 7P] (H-ICKGKEV[Pen]T-NH2; disulfide 2-8)
[2]
  survival-promoting activity (in words): highest activity at the lowest concentrations

## CC[C@H](C)[C@@H]1NC(=O)[C@H](CC(=O)O)NC(=O)[C@H]([C@@H](C)O)NC(=O)[C@@H](N)CSSC(C)(C)[C@@H](C(N)=O)NC(=O)[C@H](CCC(=O)O)NC(=O)[C@H](CCCCN)NC(=O)CNC(=O)[C@H](CCCCN)NC1=O [Peptide L29] (H-CTDIKGKE[Pen]-NH2; disulfide 1-9)
[1]
  survival-promoting activity (in words): significantly above background
  concentration range with activity significantly above background: 64 to 500 µM

## C[C@@H]1NC(=O)[C@H](CCC(N)=O)NC(=O)[C@H](CCCCN)NC(=O)[C@H](CCC(=O)O)NC(=O)[C@H](CC(=O)O)NC(=O)[C@H]([C@@H](C)O)NC(=O)[C@@H](N)C(C)(C)SSC[C@@H](C(N)=O)NC1=O [Peptide L92] (H-[Pen]TDEKQAC-NH2; disulfide 1-8)
[1]
  survival-promoting activity (in words): significantly above background
  concentration range with activity significantly above background: 500 µM

## CC[C@H](C)[C@@H]1NC(=O)[C@@H](NC(=O)[C@@H](N)CC(=O)O)C(C)(C)SSC[C@@H](C(=O)N[C@H](C(N)=O)C(C)C)NC(=O)[C@H]([C@@H](C)O)NC(=O)[C@H](C(C)C)NC(=O)[C@H](CCC(=O)O)NC(=O)[C@H](CCCCN)NC(=O)CNC(=O)[C@H](CCCCN)NC1=O [Peptide P9] (H-D[Pen]IKGKEVTCV-NH2; disulfide 2-10)
[2]
  survival-promoting activity (in words): highest activity at the lowest concentrations
